In PubChem BioAssay AID2685 (National Center for Advancing Translational Sciences (NCATS), 2010):
The other results are listed elsewhere or left out. The main result of the screen is listed elsewhere. These columns were measured beside it and carry no call. The list favours compounds with an active or inconclusive main result. Words in brackets tell the shape of the fitted curve; partial curves, single points and poor fits give uncertain potencies. *1 amine or outer side, *2 acyl side, *3 side chain or, on linkers, in order; H or OH if unused. Where a SMILES comes first, the peptide text is derived from it. Bridges are numbered along the chain shown (N, C = ends). [ ]: non-standard residue; d: D form. ξ: configuration not given here. hSer(Ph(2-I,4-NO2,6-CO)) = O=C([C@H](CCOc1c(I)cc([N+](=O)[O-])cc1C(=O)[*:3])N[*:1])[*:2]; ξD = NC(CC(=O)O)C(=O)O

Experiment: qHTS Assay for Lipid Storage Modulators in Drosophila S3 Cells;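 for cell number change: cells counted by Cell Tracker Red CMTPX staining in the red channel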
Conditions: BODIPY lipid droplet fluorescence, 18-24 h; for cell number change: measured here: cell count max response, cells fed with added oleic acid
Method in brief: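 Drosophila S3 cells loaded with oleic acid (400 uM, as added) and compounds at several concentrations; lipid droplets imaged by 488-nm laser-scanning cytometry, 500–530 nm intensity and object ratio to cell channel. Percent activity normalized to 20 uM Triacsin C.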

[1] = measured here: lipid fluorescence (Fed channel) AC50, cells fed with added oleic acid
[2] = measured here: cell number channel AC50, cells fed with added oleic acid

Row | SMILES | cell number change [%] | AC50 [1] | AC50 [2]
1 | COc1cc(NC(=O)c2cc(-n3cnnc3)ccc2Cl)cc(OC)c1 | 14.8 | 0.0461 µM [falling, full curve, poor fit] | –
2 | Cc1ccc2nc(SCc3ccc([N+](=O)[O-])cc3)[nH]c2c1 | 0.394 | 0.0058 µM [rising, full curve, poor fit] | –
3 | O=C(CSc1c2c(nc3cc(Cl)ccc13)CCCC2)NCc1ccco1 | 40.6 | 11.6 µM [rising, partial curve, poor fit] | 0.092 µM [rising, full curve]
4 | CC(C)CNC(=O)C1CCCN1S(=O)(=O)c1ccc(Cl)cc1 (stereo not drawn) | -0.368 | 2.06 µM [falling, partial curve] | 0.517 µM [rising, single point]
5 | Nc1ccccc1SC1CC(=O)N(c2ccc(Cl)c(Cl)c2)C1=O (stereo not drawn) | -54.4 | 18.4 µM [falling, single point] | 29.1 µM [falling, single point]
6 | CSc1ccc(-c2cccc([N+](=O)[O-])c2)nn1 | 38.5 | 29.1 µM [rising, single point] | 29.1 µM [rising, single point]
7 | C/C(=N/NS(=O)(=O)c1ccc(C)cc1C)c1ccc2c(c1)OCO2 | -11.9 | 29.1 µM [rising, single point] | –
8 | COc1cccc(NC(=S)N(CCN(C)C)Cc2cccs2)c1 | – | – | 0.00411 µM [rising, full curve, poor fit]
9 | O=C(O)CCc1ccccc1OC(=O)c1ccccc1 | -17.4 | 3.66 µM [rising, single point] | –
10 | CCCn1nnnc1SCC(=O)c1ccc(NC(C)=O)cc1 | 47.4 | 14.6 µM [rising, partial curve] | 6.51 µM [rising, partial curve]
11 | CC(=O)Nc1ccc(OS(=O)(=O)c2cc(Cl)ccc2C)cc1 | 16.9 | – | –
12 | COc1cccc(NC(=O)C2C3C=CC(O3)C2C(=O)NCc2cccnc2)c1 (stereo not drawn) | 4.64 | 29.1 µM [rising, single point] | –
13 | COc1ccccc1C(=O)NNC(=S)NC(=O)c1cccs1 | 29.7 | 20.6 µM [rising, single point] | –
14 | CN(Cc1nc(-c2ccncc2)no1)S(=O)(=O)c1ccc(Br)cc1 | – | 1.03 µM [rising, full curve] | –
15 | CC(NC(=O)c1c(O)c2ccccc2n(C)c1=O)c1ccccc1 (stereo not drawn) | -12.3 | 1.03 µM [rising, full curve] | –
16 | COc1ccc(N(C(C)=O)S(=O)(=O)c2cc(OC)ccc2OC)cc1 | -7.5 | 29.1 µM [rising, single point] | –
17 | COc1cccc(C(=O)NC2CCN(CC(=O)Nc3nccs3)CC2)c1 | 16.9 | 4.11 µM [rising, partial curve, poor fit] | –

A section of the results above, as a working copy:
Row | SMILES | cell number change [%] | AC50 [1] | AC50 [2]
12 | COc1cccc(NC(=O)C2C3C=CC(O3)C2C(=O)NCc2cccnc2)c1 (stereo not drawn) | 4.64 | 29.1 µM [rising, single point] | –
13 | COc1ccccc1C(=O)NNC(=S)NC(=O)c1cccs1 | 29.7 | 20.6 µM [rising, single point] | –

Following part:

Row | SMILES | cell number change [%] | AC50 [1] | AC50 [2]
18 | Cc1cc(C)n(CCCNC(=O)c2ccc3c(c2)NC(=O)CS3)n1 | – | 1.46 µM [rising, partial curve] | –
19 | O=C(O)C1OC(C(=O)O)C2C1C(F)(F)C2(F)F (stereo not drawn) | -27.3 | 3.66 µM [falling, full curve] | –
20 | COc1ccc(-c2nc(CN3CCN(C(=O)c4ccco4)CC3)c(C)o2)c(F)c1 | 27.6 | 3.66 µM [rising, partial curve, poor fit] | –
21 | O=C(Cc1cccc(C(F)(F)F)c1)N1CCCC1 | -3.81 | 29.1 µM [rising, single point] | –
22 | O=C1c2cc(O)c(O)cc2S(=O)(=O)C1c1ccccc1 (stereo not drawn) | 20 | 6.51 µM [rising, single point] | –
23 | CC(C)NC(=O)c1cc2c(-c3ccc(Cl)cc3)nn(C)c2s1 | 23.7 | – | 0.184 µM [rising, full curve, poor fit]
24 | CN(C)c1ccc([C@@H]2[C@@H]([N+](=O)[O-])[C@H]3C=Cc4ccccc4N3[C@H]2C(=O)c2ccc(Cl)cc2)cc1 | -36.2 | 11.6 µM [falling, partial curve] | 18.4 µM [falling, single point]
25 | NS(=O)(=O)c1ccc(CNC(=O)/C=C/c2cccc([N+](=O)[O-])c2)cc1 | 15.4 | 6.51 µM [rising, single point] | –
26 | c1ccc(-n2ncc3c(NCCN4CCOCC4)ncnc32)cc1 | -19.9 | 0.461 µM [falling, full curve] | 7.31 µM [falling, partial curve, poor fit]
27 | CCCCN(CC)C(=O)Cn1cnc2ccc(S(=O)(=O)N3CCC(C)CC3)cc2c1=O | 11.7 | 0.103 µM [falling, single point] | –
28 | COc1cc(NC(=O)c2ccc(-c3cccc([N+](=O)[O-])c3)o2)ccc1NC(=O)C(C)C | -7.97 | 1.84 µM [falling, full curve] | 3.66 µM [falling, single point]
29 | CCC(CC)C(=O)c1c[nH]c(C(=O)NCc2ccccc2OC)c1 | -43.1 | 29.1 µM [falling, single point] | 29.1 µM [falling, single point]
30 | COc1ccc(S(=O)(=O)N2CCN(C3Cc4ccccc4C3)CC2)cc1 | 17.1 | – | –
31 | CCOc1c(Br)cc(C(=O)OCC(=O)N2CCc3ccccc3C2)cc1OC | 5.14 | 6.51 µM [rising, partial curve, poor fit] | –
32 | Cc1cccc(C(=O)Nc2ccccc2C(=O)NCc2ccco2)c1 | 46.6 | 0.116 µM [rising, full curve, poor fit] | –
33 | CCOc1ccc(/C=C/c2[nH]c(=O)[nH]c(=O)c2[N+](=O)[O-])cc1 | 12.6 | 20.6 µM [rising, single point] | –
34 | C[C@@H]1NC(=O)c2cc([N+](=O)[O-])cc(I)c2OCC[C@@H](C(=O)NC(CC(=O)O)C(N)=O)NC(=O)[C@H](CC(N)=O)NC1=O (stereo partly drawn) (AN[hSer(Ph(2-I,4-NO2,6-CO))][ξD]-NH2; lactam N-3) | 21.1 | 0.291 µM [rising, full curve] | 0.184 µM [rising, full curve, poor fit]
